# In patent US20190185516A1 (YISSUM RESEARCH DEVELOPMENT COMPANY OF THE HEBREW …, published 2019):
# Results are given in words; binding and its absence hold for the method and conditions named. Some results given as binding are weak or reduced against the parent protein; the word gives no strength.
# Target: MyD88 TIR domain produced as a recombinant protein fused to the SUMO3 protein (UniProt P55854)
# Assay: ELISA, recombinant MyD88 coated at 8 µg/ml, biotinylated linear peptide at 125 µg/ml, streptavidin-HRP
binder,measurement,value
RDVLPGT (biotinylated (position of the biotin not stated)) [biotinylated linear BB loop peptide RDVLPGT],binding,binds
